# Library screen at single concentrations

Chains of the proteins cited; added tags and fusions are not shown. Residues count along the entry.
UniProt A4I591, 1-473: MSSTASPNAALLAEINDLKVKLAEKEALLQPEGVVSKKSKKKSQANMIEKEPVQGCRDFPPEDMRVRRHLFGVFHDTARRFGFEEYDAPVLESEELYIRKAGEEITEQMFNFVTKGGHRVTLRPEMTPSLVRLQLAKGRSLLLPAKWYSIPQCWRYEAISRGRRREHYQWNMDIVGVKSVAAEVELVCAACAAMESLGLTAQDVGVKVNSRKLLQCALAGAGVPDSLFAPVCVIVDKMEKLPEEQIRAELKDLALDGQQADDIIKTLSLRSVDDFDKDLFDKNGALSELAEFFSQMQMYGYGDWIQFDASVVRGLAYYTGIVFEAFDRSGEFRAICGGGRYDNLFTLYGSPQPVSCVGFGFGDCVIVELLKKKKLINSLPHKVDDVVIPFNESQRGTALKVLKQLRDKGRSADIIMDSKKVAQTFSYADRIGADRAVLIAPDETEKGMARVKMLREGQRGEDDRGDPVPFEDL

The values are deposited in ChEMBL (CHEMBL3988442, “University of Dundee, Small-Polar-MMV Screening Library” (2021)).

Each number is a percent effect as filed. The record does not define 0% and 100%; most values in the screen are far below 50% and negative numbers occur (in some assays of this library far below -100). This is an unselected part of the compounds tested.

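Histidine-tRNA ligase, Leishmania infantum (UniProt A4I591). Enzyme assay of histidyl-tRNA synthetase; the read-out is not stated. Concentration: 30 µM. Higher reads as stronger inhibition (inferred: compounds with an IC50 in retests scored well above the rest). The assay is labelled LdHisRS but filed under L. infantum. Size under these conditions: about 69,000 compounds, about 410 of them at 50% or above in at least one test.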

| structure | Percent Effect |
|---|---|
| `CCOc1ccc([C@@H]2N[C@H](c3nccs3)Cc3ccsc32)cc1OC` | 4.225 |
| `CCOC(=O)CSc1ccc(-c2nc(C)no2)cn1` | 16.95 |
| `O=C(c1ccnnc1)N1CCc2onc(Cn3cccn3)c2C1` | 5.455 |
| `COc1ccc2[nH]cc(C(=O)N3C[C@@H](O)[C@H](NS(C)(=O)=O)C3)c2c1` | 12.77 |
| `CO[C@@H]1CO[C@@]2(CCN(C(=O)COc3ccccc3C)C2)C1` | 16.81 |
| `COC(=O)c1ccc(OCC(=O)N(C)Cc2ccsc2)c(OC)c1` | 11.29 |
| `CCOC(=O)C1CCN(C(=O)c2cnn(-c3ccccc3F)c2N)CC1` | 15.84 |
| `CC(C(=O)N1CCN(C(=O)c2ccc(F)cc2)CC1)n1ccnc1` (centres unmarked) | 12.9 |
| `Cc1cc(C)n(CC(=O)N(CC2CN(C)CCO2)c2nccs2)n1` (centres unmarked) | 16.3 |
| `Cc1nc2n(n1)CC(NCc1ccnc(-c3ccccc3)n1)CC2` (centres unmarked) | 25 |
| `COc1ccc(-n2nnc(C(N)=O)n2)cc1` | 12.33 |
| `CC(C)Cc1cc(CC2(NCc3ccco3)COC2)no1` | 14.86 |
| `Cc1cc(C)n(CC2CN(Cc3nnc(C)o3)CCO2)n1` (centres unmarked) | 9.174 |
| `CCS(=O)(=O)N1CCCN(CCCOC)CC1` | 1.77 |
| `CN(Cc1ccoc1)C(=O)Cn1ncc(N(C)C)cc1=O` | 6.557 |
| `COCCN1CCC(c2nc3ccccc3[nH]2)CC1` | 15.38 |
| `c1nnc(Nc2cncc(C3CCCN3CC3CC3)n2)s1` (centres unmarked) | 11.27 |
| `Cc1cnn(CCNCc2nnc(Cc3ccccc3)o2)c1` | 10.91 |
| `Cc1cc(-c2cc(N)c(=O)n(CC(=O)N3CCCC(C)C3)n2)c(C)o1` (centres unmarked) | 5.634 |
| `O=C1COC2(CCN(Cc3ccco3)CC2)CN1Cc1cccnc1` | 24.77 |
| `OCCCNc1nc(O)c2c(n1)-c1ccccc1CC21CCCCC1` | 23.68 |
| `O=C(NCC1CC1)C1CCC2(CN(C(=O)c3ccno3)C2)O1` (centres unmarked) | 10.26 |
| `CCc1nc(C2CCCN(C(=O)c3ccc4[nH]cnc4c3)C2)no1` (centres unmarked) | 2.655 |
| `O=C(CCc1ccc(-c2ccccc2)[nH]1)N1CCCC(n2ccnc2)C1` (centres unmarked) | 26.79 |
| `Cc1ccc(C)c(-c2csc(N)c2C#N)c1` | -9.709 |
| `CCc1cc(N2CCC(NCCc3nc(C)c(C)s3)CC2)nc(C)n1` | 18.07 |
| `CN(C)C(=O)NC[C@H]1OC[C@@H]2CCN(Cc3ccoc3)C[C@@H]21` | -1.887 |
| `COc1cn(CC(=O)N2CCN(c3ccc(Cl)cc3)CC2)c(C)cc1=O` | 22.5 |
| `CN(Cc1ncnn1C1Cc2ccccc2C1)C1CCS(=O)(=O)C1` (centres unmarked) | 18.07 |
| `CC(C)CN1CC[C@@H]2[C@H](CC1)N(C(=O)c1ccccc1)CCS2(=O)=O` | 1.01 |
| `CCN(C)S(=O)(=O)NCC1(c2cccc(Br)c2)CC1` | 8.889 |
| `Cc1c(C)n2c(SCC(=O)N3CCCCC3)nnc2[nH]c1=O` | 17.2 |
| `O=C1CSC(C(F)(F)F)c2c(O)nn(C3CCCC3)c2N1` (centres unmarked) | 7.895 |
| `CCc1oc(C(=O)OC)cc1Cn1cccc(C(F)(F)F)c1=O` | 11.11 |
| `COCc1cccc(NC(C(N)=O)c2ccc(Br)cc2)c1` (centres unmarked) | 15 |
| `CC(=O)N1CCN(S(=O)(=O)c2ccc(C)c(F)c2)CC1` | 17.14 |
| `Cc1ccc(N2C[C@H](C(=O)NCC3CC3)[C@@H]3CCO[C@@H]3C2)nn1` | 14.71 |
| `N[C@@H](Cc1ccccc1)c1nnc(S(=O)(=O)Cc2cccc(Cl)c2)o1` | -4.348 |
| `CC1CCN(c2ncc(C#N)c(N)n2)CC1` | 17.82 |
| `Cc1cccc(C(=O)NCc2ccc(OCCN(C)C)cc2)c1C` | 8.333 |
| `Cc1ccc(CN2CC[C@H]3OCC[C@@]3(COCC(=O)N(C)C)C2)s1` | -2 |
| `Cc1cscc1C(=O)Nc1cncnc1N(C)C` | 2.679 |
| `O=C(c1ccn(-c2ccccc2Cl)n1)N1CCCSCC1` | 23.08 |
| `Cc1ccccc1C(=O)N1C[C@@H]2OCCN(c3ncccn3)[C@@H]2C1` | 13.89 |
| `Cn1cccc1CN1CCC2(CCCN(C(=O)c3cccnc3)C2)CC1` | 15.79 |
| `CNC(=O)[C@@]12CCO[C@@H]1CCN(S(=O)(=O)c1cc(C)cc(C)c1)C2` | 13 |
| `COc1cccc(OCCNCc2ccccc2)c1` | 6.122 |
| `CC(C)N1CC(C(=O)N2CCc3c(nc(CC4CC4)[nH]c3=O)C2)CC1=O` (centres unmarked) | 10.96 |
| `Cc1nc(NCCSc2nnc(C)s2)c2cccnc2n1` | 6.806 |
| `O=S(=O)(NCc1cccnc1OC1CCCC1)N1CCCCC1` | 6.667 |
| `C1CN(CC2CCOCC2)Cc2c(COCC3CC3)nnn2C1` | 15.79 |
| `CCOCCNC(=O)C1CCC(=O)N(CCc2ccc(Cl)cc2)C1` (centres unmarked) | 1.235 |
| `CCOC(=O)c1cnn(C2CCN(C(=O)CC3C=CCC3)CC2)c1N` (centres unmarked) | 18.58 |
| `Cc1cnc(N2CCO[C@@H]3CC(COCc4cccnc4)C[C@H]32)nc1` (some centres unmarked) | 24.53 |
| `CCCS(=O)(=O)N1CCC2(CCCN(c3ncc(F)cn3)C2)C1` (centres unmarked) | 24 |
| `Cc1nc(N2CCOCC2)nc(C)c1NC(=O)c1ccco1` | 6.957 |

For reference, 6 entries once more:

* Cc1cc(C)n(CC2CN(Cc3nnc(C)o3)CCO2)n1 (centres unmarked) | 9.174%
* CCOC(=O)CSc1ccc(-c2nc(C)no2)cn1 | 16.95%
* O=C(c1ccn(-c2ccccc2Cl)n1)N1CCCSCC1 | 23.08%
* Cc1nc(N2CCOCC2)nc(C)c1NC(=O)c1ccco1 | 6.957%
* Cc1ccc(C)c(-c2csc(N)c2C#N)c1 | -9.709%
* CCN(C)S(=O)(=O)NCC1(c2cccc(Br)c2)CC1 | 8.889%